# Results taken from PubChem BioAssay AID2685 (National Center for Advancing Translational Sciences (NCATS), 2010).
# Some of the results follow. Shown are side measurements of this screen, not its main read-out; they come without a call. The list favours compounds with an active or inconclusive main result. Potencies come from curve fits of mixed quality, noted in brackets.
# Assay: qHTS Assay for Lipid Storage Modulators in Drosophila S3 Cells;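 on cell number change: cells counted by Cell Tracker Red CMTPX staining in the red channel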
# Details: BODIPY lipid droplet fluorescence, 18-24 h; for cell number change: measured here: cell count max response, cells fed with added oleic acid
# Procedure, shortened: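 Drosophila S3 cells got compounds at several concentrations plus oleic acid (400 uM solution). Laser-scanning cytometry with 488 nm excitation read lipid droplets at 500-530 nm and cells at 575-640 nm. Percent activity was relative to 20 uM Triacsin C.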
# [1] = measured here: lipid fluorescence (Fed channel) AC50, cells fed with added oleic acid
# [2] = measured here: cell number channel AC50, cells fed with added oleic acid
SMILES,cell number change [%],AC50 [1],AC50 [2]
O=C(NCCCNc1ccc(C(F)(F)F)cc1[N+](=O)[O-])c1ccc(Cl)cc1,-28.7,"0.731 µM [falling, single point]",
CCN(CC)c1ncnc2sc(C(=O)N3CCN(c4ccccc4)CC3)c(C)c12,,"0.291 µM [rising, partial curve, poor fit]","6.51 µM [rising, single point]"
COc1ccc(S(=O)(=O)N2CCCCC2)cc1NC(=O)c1cc(C)on1,52.8,"0.326 µM [rising, single point]",
CCc1ccc(CN(C)C(=O)c2ccc3c(c2)OCCO3)cc1,-19.7,"4.11 µM [falling, single point]",
O=C(Nc1ccc2c(c1)oc1ccccc12)c1ccc(Br)o1,-12.6,,"4.11 µM [rising, single point]"
CN(CC(=O)Nc1ccc(Cl)c(Cl)c1)C(=O)CC1OC(=O)c2ccccc21 (configuration not stated),39,"10.3 µM [rising, partial curve]","9.2 µM [rising, partial curve]"
Cn1c(=O)cc(OCCCC(=O)NC2CCCC2)c2ccccc21,,"0.651 µM [falling, single point]",
CCc1ccc(CN2CCCC(C(=O)Nc3ccccc3-c3ccc(OC)cc3)C2)o1 (configuration not stated),,"0.517 µM [falling, single point]",
COc1ccc(-c2cc3c(=O)n(CC(=O)Nc4cccc(Cl)c4)ncn3n2)cc1,15.9,"25.9 µM [rising, single point]",
O=C(O)CC(c1ccccc1)n1cccc1 (configuration not stated),7.14,,
CCC(=O)N1CCc2cc(Br)cc(S(=O)(=O)NCCCN(C)Cc3ccccc3)c21,-0.87,,
O=C(CN1C(=O)NC(Cc2c[nH]c3ccccc23)C1=O)NCCc1ccc(F)cc1 (configuration not stated),-18.9,"14.6 µM [falling, partial curve]",
COc1ccc(CNC(=O)C(c2cccs2)N(C(=O)c2csnn2)C2CC2)cc1 (configuration not stated),45.5,,"6.51 µM [rising, partial curve, poor fit]"
N#CC1(NC(=O)COC(=O)c2cc([N+](=O)[O-])ccc2N2CCCC2)CCCCC1,-13.3,,
CCCN(CC(=O)Nc1ccccc1C)C(=O)C1CC(=O)N(c2ccc(C)cc2)C1 (configuration not stated),-25,,"1.84 µM [falling, partial curve]"
COc1cccc(/C=C2\SC(=O)NC2=O)c1OCc1ccc(C(=O)O)cc1,-46.1,,"29.1 µM [falling, single point]"
COc1ccc(-c2nnc(SC(C(=O)c3c[nH]c4ccccc34)c3ccccc3)n2N)cc1OC (configuration not stated),,"18.4 µM [falling, partial curve]","4.11 µM [falling, single point]"
O=C(O)CSc1nnc(Cc2ccccc2)n1Cc1ccccc1,2.8,"4.61 µM [falling, single point]",
COc1ccc(Cn2cnc3c(N)c(C)c(C)cc32)cc1,21.6,,
Cc1cc(C)c2nc(-c3ccccn3)cc(C(=O)N3CCCC3)c2c1,-10.5,"29.1 µM [falling, single point]",
c1ccc(-c2cc(-c3nnco3)c3ccccc3n2)nc1,,"0.731 µM [rising, single point]",

SMILES,cell number change [%],AC50 [1],AC50 [2]
Cc1ccc(NC(=O)C2CCCN(S(=O)(=O)c3c(C)noc3C)C2)nc1 (configuration not stated),-9.16,"2.06 µM [rising, single point]",
O=C(CCN1C(=O)/C(=C/c2ccc(F)cc2)SC1=S)Nc1cc([N+](=O)[O-])ccc1O,1.41,"6.51 µM [rising, single point]","6.51 µM [rising, single point]"
CC(C)(C)c1nc(C(C)(C)C)c(Br)c(=O)[nH]1,-32.8,"0.82 µM [falling, full curve]","1.3 µM [falling, full curve, poor fit]"
O=C(Oc1c(Br)cc(Br)c2cccnc12)N1CCCCC1,27.1,,
COc1ccc(S(=O)(=O)NCc2ccc(C(=O)NCCCN3CC(C)CC(C)C3)cc2)cc1 (configuration not stated),-10.6,,
CC(=O)/C(=C/N(C)C)Sc1ccc(C)cc1,-75.3,"18.4 µM [falling, partial curve]","7.31 µM [falling, partial curve, poor fit]"
Cc1c(Cl)ccc2c(C(=O)NC(C)c3ccncc3)cc(-c3ccncc3)nc12 (configuration not stated),88.6,,"6.51 µM [falling, single point]"
CC(C)N1C(=O)C2ON(c3ccccc3)C(c3cccs3)C2C1=O (configuration not stated),6.02,"5.17 µM [falling, single point]",
O=C(c1ccccc1OCc1ccccc1Br)N1CCN(c2ncccn2)CC1,0.842,"8.2 µM [falling, partial curve]",
Cn1cc(C(=O)Nc2ccc3c(c2)CCC3)cn1,-1.61,"3.66 µM [rising, single point]",
O=C(NCCC(=O)N1CCNC1=O)OCc1ccccc1,-0.287,"6.51 µM [falling, single point]",
C#CCn1c(=NC(=O)c2sc3ccccc3c2Cl)sc2cc(S(N)(=O)=O)ccc21,4.97,"0.259 µM [rising, partial curve, poor fit]",
CC12CN3CC(C)(CN(C1)C3c1ccc(Cl)cc1Cl)C2=O (configuration not stated),-21.5,"0.731 µM [falling, full curve]",
CN(CC(=O)Nc1cccc(F)c1)C(=O)CCCN1C(=O)c2cccc3cccc(c23)C1=O,81.1,,"1.64 µM [rising, full curve]"
O=C(Nc1cccnc1)c1cc(-c2ccc(Br)cc2)on1,19.6,"0.146 µM [falling, full curve, poor fit]",
Cc1cc(C)c2c(N)c(C(=O)N3CCN(c4ncccn4)CC3)sc2n1,163,"0.103 µM [rising, full curve, poor fit]","2.59 µM [rising, partial curve]"
CCOc1ccc(S(=O)(=O)N(CC(=O)NCc2cccnc2)c2ccc(F)cc2)cc1,26.1,,
COc1ccccc1Cn1c(=S)[nH]c2ccc(Br)cc2c1=O,-19.7,"8.2 µM [falling, single point]",
O=C(CNC(=S)N(Cc1ccccc1)Cc1ccccc1F)NCc1ccc(Cl)cc1,-35.8,,"2.06 µM [falling, partial curve]"
O=c1cccccc1NCc1ccccc1,73.3,,"16.4 µM [rising, single point]"
O=C(NCc1ccc2c(c1)CCO2)Nc1cccc(C(F)(F)F)c1,19.2,,"6.51 µM [falling, single point]"

# Exported tab-delimited: 4 of the compounds above
SMILES	cell number change [%]	AC50 [1]	AC50 [2]
O=C(CCN1C(=O)/C(=C/c2ccc(F)cc2)SC1=S)Nc1cc([N+](=O)[O-])ccc1O	1.41	6.51 µM [rising, single point]	6.51 µM [rising, single point]
O=C(Oc1c(Br)cc(Br)c2cccnc12)N1CCCCC1	27.1		
CCOc1ccc(S(=O)(=O)N(CC(=O)NCc2cccnc2)c2ccc(F)cc2)cc1	26.1		
COc1ccccc1Cn1c(=S)[nH]c2ccc(Br)cc2c1=O	-19.7	8.2 µM [falling, single point]	

# Remaining list, next part:

SMILES,cell number change [%],AC50 [1],AC50 [2]
CN(C)CCN(C(=O)c1ccc2c(c1)CCCC2)c1nc2cc3c(cc2s1)OCCO3,11.9,"29.1 µM [rising, single point]",
CC1(C)CC(NS(=O)(=O)c2ccc(F)cc2)CC(C)(C)N1,-5.61,"0.58 µM [falling, single point]",
Cc1cc(C(=O)C(C)Sc2cccc[n+]2[O-])c(C)n1-c1ccc(Cl)cc1 (configuration not stated),33.5,,"1.64 µM [rising, partial curve, poor fit]"
CCCCN1CC(O)=C(c2nc(-c3ccc(Cl)cc3)cs2)C1=N,14.2,"1.84 µM [rising, partial curve]",
S=C(Nc1ccccc1)N1CCN(C2CCCCC2)CC1,-43.1,"14.6 µM [falling, partial curve]","14.6 µM [falling, partial curve, poor fit]"
CCN(C(=O)CSc1nc(N)cc(=O)[nH]1)c1c(N)n(Cc2ccccc2)c(=O)[nH]c1=O,2.64,"6.51 µM [rising, partial curve, poor fit]",
COc1ccc(CNC(=O)CNC(=O)c2sc3ccccc3c2Cl)cc1OC,-38.6,"18.4 µM [falling, partial curve]","8.2 µM [falling, partial curve]"
CCCCc1c(C)nc(N)[nH]c1=O,10.8,,
CCOC(=O)C1C(=O)CC(C)(O)C(C(=O)OCC)C1c1cccc(OC(F)(F)C(F)F)c1 (configuration not stated),19.8,,"0.184 µM [rising, full curve, poor fit]"
O=c1cc(COc2ccc(Cl)c(Cl)c2)nc2sccn12,10.9,"3.66 µM [rising, partial curve]",
O=C(OCC(=O)N1CCN(c2ccccc2)CC1)C1=COCCO1,-12.8,"5.8 µM [falling, partial curve]",
Cc1ccc(NS(=O)(=O)c2ccc3c(c2)NC(=O)CC(=O)N3)cc1C,-8.47,"18.4 µM [rising, single point]",
Cc1ccc(S(=O)(=O)c2nc(S(C)(=O)=O)sc2N2CCCCC2C)cc1 (configuration not stated),-20.3,"3.66 µM [falling, full curve]",
NC(N)=NS(=O)(=O)c1ccc(NC(=S)NC(=O)c2ccncc2)cc1,12.2,"29.1 µM [rising, partial curve]",
O=C1c2cccnc2C(=O)N1Cc1ccco1,1.33,,
N#CCSc1nnc2sc3ccccc3n12,25,"6.51 µM [rising, single point]",
COc1ccccc1N1CCN(CCC(=O)Nc2ccc(F)cc2)CC1,23.9,"0.58 µM [rising, single point]",
CC(=O)Nc1ccc(-c2csc(NC(=O)Nc3ccccc3)n2)cc1,19.5,,
CCn1c(=O)c([N+](=O)[O-])c(NCC(O)c2ccccc2)c2ccccc21 (configuration not stated),-43.8,"16.4 µM [falling, single point]","16.4 µM [falling, partial curve]"
